# Source: the supplement of paper PMC8728848
# The other results are listed elsewhere or left out.
# Columns and labels:
# Assay in all cases: glycan array binding signal (z-score within array); higher = stronger binding
# Conditions in all cases: glycan notation: IUPAC condensed, linker removed
# Neu5Ac(a2-3)GalNAc = biological target: Neu5Ac(a2-3)GalNAc
# Method in brief: (§1)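 Glycan array data came from 3228 arrays in the Consortium for Functional Glycomics database, and only arrays with an available protein sequence were kept. Glycan names were put into IUPAC-condensed notation, and columns mapping to the same glycan were averaged. The binding signal is a within-array Z-score, averaged across arrays of one protein sequence run at different concentrations or buffers and across linkers. A negative Z-score can be read as non-binding.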
# [1] = biological target: Neu5Ac(a2-3)GalNAc(b1-4)GlcNAc
# Method in brief: as §1
# [2] = biological target: Neu5Ac(a2-3)[GalNAc(b1-4)]Gal(b1-4)Glc
# Method in brief: as §1
# [3] = biological target: Neu5Ac(a2-3)[GalNAc(b1-4)]Gal(b1-4)GlcNAc
# Method in brief: as §1
# [4] = biological target: Neu5Ac(a2-3)[GalNAc(b1-4)]Gal(b1-4)GlcNAc(b1-3)GalNAc
# Method in brief: as §1
# [5] = biological target: Neu5Ac(a2-3)[Neu5Ac(a2-6)]GalNAc
# Method in brief: as §1
# Neu5Ac(a2-6)Gal = biological target: Neu5Ac(a2-6)Gal
# Method in brief: as §1
# [6] = biological target: Neu5Ac(a2-6)Gal(b1-3)GlcNAc(b1-3)[Gal(b1-4)GlcNAc(b1-6)]Gal(b1-4)Glc
# Method in brief: as §1
# Neu5Ac(a2-6)Gal(b1-4)Glc = biological target: Neu5Ac(a2-6)Gal(b1-4)Glc
# Method in brief: as §1
# [7] = biological target: Neu5Ac(a2-6)Gal(b1-4)GlcNAc
# Method in brief: as §1
# [8] = biological target: Neu5Ac(a2-6)Gal(b1-4)GlcNAc(b1-2)Man
# Method in brief: as §1
# [9] = biological target: Neu5Ac(a2-6)Gal(b1-4)GlcNAc(b1-2)Man(a1-3)Man(b1-4)GlcNAc(b1-4)GlcNAc
# Method in brief: as §1
# [10] = biological target: Neu5Ac(a2-6)Gal(b1-4)GlcNAc(b1-2)Man(a1-3)[Gal(b1-4)GlcNAc(b1-2)Man(a1-6)]Man(b1-4)GlcNAc(b1-4)GlcNAc
# Method in brief: as §1
# [11] = biological target: Neu5Ac(a2-6)Gal(b1-4)GlcNAc(b1-2)Man(a1-3)[GlcNAc(b1-2)Man(a1-6)]Man(b1-4)GlcNAc(b1-4)GlcNAc
# Method in brief: as §1
# [12] = biological target: Neu5Ac(a2-6)Gal(b1-4)GlcNAc(b1-2)Man(a1-3)[GlcNAc(b1-4)][Neu5Ac(a2-6)Gal(b1-4)GlcNAc(b1-2)Man(a1-6)]Man(b1-4)GlcNAc(b1-4)GlcNAc
# Method in brief: as §1
# [13] = biological target: Neu5Ac(a2-6)Gal(b1-4)GlcNAc(b1-2)Man(a1-3)[Man(a1-6)]Man(b1-4)GlcNAc(b1-4)GlcNAc
# Method in brief: as §1
# [14] = biological target: Neu5Ac(a2-6)Gal(b1-4)GlcNAc(b1-2)Man(a1-3)[Neu5Ac(a2-3)Gal(b1-4)GlcNAc(b1-2)Man(a1-6)]Man(b1-4)GlcNAc(b1-4)GlcNAc
# Method in brief: as §1
# [15] = biological target: Neu5Ac(a2-6)Gal(b1-4)GlcNAc(b1-2)Man(a1-3)[Neu5Ac(a2-6)Gal(b1-4)GlcNAc(b1-2)Man(a1-6)]Man(b1-4)GlcNAc(b1-4)GlcNAc
# Method in brief: as §1
# [16] = biological target: Neu5Ac(a2-6)Gal(b1-4)GlcNAc(b1-2)Man(a1-3)[Neu5Ac(a2-6)Gal(b1-4)GlcNAc(b1-2)Man(a1-6)]Man(b1-4)GlcNAc(b1-4)[Fuc(a1-6)]GlcNAc
# Method in brief: as §1
# [17] = biological target: Neu5Ac(a2-6)Gal(b1-4)GlcNAc(b1-2)Man(a1-6)Man(b1-4)GlcNAc(b1-4)GlcNAc
# Method in brief: as §1
# [18] = biological target: Neu5Ac(a2-6)Gal(b1-4)GlcNAc(b1-2)Man(a1-6)[Gal(b1-4)GlcNAc(b1-2)Man(a1-3)]Man(b1-4)GlcNAc(b1-4)GlcNAc
# Method in brief: as §1
# [19] = biological target: Neu5Ac(a2-6)Gal(b1-4)GlcNAc(b1-2)Man(a1-6)[GlcNAc(b1-2)Man(a1-3)]Man(b1-4)GlcNAc(b1-4)GlcNAc
# Method in brief: as §1
# [20] = biological target: Neu5Ac(a2-6)Gal(b1-4)GlcNAc(b1-2)Man(a1-6)[Man(a1-3)]Man(b1-4)GlcNAc(b1-4)GlcNAc
# Method in brief: as §1
# [21] = biological target: Neu5Ac(a2-6)Gal(b1-4)GlcNAc(b1-2)[Neu5Ac(a2-6)Gal(b1-4)GlcNAc(b1-4)]Man(a1-3)[GlcNAc(b1-4)][Neu5Ac(a2-6)Gal(b1-4)GlcNAc(b1-2)[Neu5Ac(a2-6)Gal(b1-4)GlcNAc(b1-6)]Man(a1-6)]Man(b1-4)GlcNAc(b1-4)GlcNAc
# Method in brief: as §1
# [22] = biological target: Neu5Ac(a2-6)Gal(b1-4)GlcNAc(b1-2)[Neu5Ac(a2-6)Gal(b1-4)GlcNAc(b1-4)]Man(a1-3)[GlcNAc(b1-4)][Neu5Ac(a2-6)Gal(b1-4)GlcNAc(b1-4)Man(a1-6)]Man(b1-4)GlcNAc(b1-4)GlcNAc
# Method in brief: as §1
# [23] = biological target: Neu5Ac(a2-6)Gal(b1-4)GlcNAc(b1-2)[Neu5Ac(a2-6)Gal(b1-4)GlcNAc(b1-6)]Man(a1-6)[Neu5Ac(a2-6)Gal(b1-4)GlcNAc(b1-2)Man(a1-3)][GlcNAc(b1-4)]Man(b1-4)GlcNAc(b1-4)GlcNAc
# Method in brief: as §1
# [24] = biological target: Neu5Ac(a2-6)Gal(b1-4)GlcNAc(b1-3)Gal(b1-3)GlcNAc
# Method in brief: as §1
# [25] = biological target: Neu5Ac(a2-6)Gal(b1-4)GlcNAc(b1-3)Gal(b1-4)GlcNAc
# Method in brief: as §1
# [26] = biological target: Neu5Ac(a2-6)Gal(b1-4)GlcNAc(b1-3)Gal(b1-4)GlcNAc(b1-2)Man(a1-3)[Neu5Ac(a2-6)Gal(b1-4)GlcNAc(b1-3)Gal(b1-4)GlcNAc(b1-2)Man(a1-6)]GalNAc
# Method in brief: as §1
# [27] = biological target: Neu5Ac(a2-6)Gal(b1-4)GlcNAc(b1-3)Gal(b1-4)GlcNAc(b1-3)Gal(b1-4)GlcNAc
# Method in brief: as §1
# [28] = biological target: Neu5Ac(a2-6)Gal(b1-4)GlcNAc(b1-3)Gal(b1-4)GlcNAc(b1-3)Gal(b1-4)GlcNAc(b1-2)Man(a1-3)[Neu5Ac(a2-6)Gal(b1-4)GlcNAc(b1-3)Gal(b1-4)GlcNAc(b1-3)Gal(b1-4)GlcNAc(b1-2)Man(a1-6)]GalNAc
# Method in brief: as §1
# [29] = biological target: Neu5Ac(a2-6)Gal(b1-4)GlcNAc(b1-3)Gal(b1-4)GlcNAc(b1-3)GalNAc
# Method in brief: as §1
# [30] = biological target: Neu5Ac(a2-6)Gal(b1-4)GlcNAc(b1-3)Gal(b1-4)GlcNAc(b1-3)[Neu5Ac(a2-6)Gal(b1-4)GlcNAc(b1-3)Gal(b1-4)GlcNAc(b1-6)]GalNAc
# Method in brief: as §1
# [31] = biological target: Neu5Ac(a2-6)Gal(b1-4)GlcNAc(b1-3)Gal(b1-4)GlcNAc(b1-6)[Gal(b1-3)]GalNAc
# Method in brief: as §1
# [32] = biological target: Neu5Ac(a2-6)Gal(b1-4)GlcNAc(b1-3)Gal(b1-4)[Fuc(a1-3)]GlcNAc(b1-3)Gal(b1-4)[Fuc(a1-3)]GlcNAc
# Method in brief: as §1
# [33] = biological target: Neu5Ac(a2-6)Gal(b1-4)GlcNAc(b1-3)GalNAc
# Method in brief: as §1
# [34] = biological target: Neu5Ac(a2-6)Gal(b1-4)GlcNAc(b1-3)[Neu5Ac(a2-6)Gal(b1-4)GlcNAc(b1-6)]GalNAc
# Method in brief: as §1
# [35] = biological target: Neu5Ac(a2-6)Gal(b1-4)GlcNAc(b1-6)GalNAc
# Method in brief: as §1
# [36] = biological target: Neu5Ac(a2-6)Gal(b1-4)GlcNAc(b1-6)[Gal(b1-3)GlcNAc(b1-3)]Gal(b1-4)Glc
# Method in brief: as §1
# [37] = biological target: Neu5Ac(a2-6)Gal(b1-4)GlcNAc(b1-6)[Gal(b1-3)]GalNAc
# Method in brief: as §1
# [38] = biological target: Neu5Ac(a2-6)Gal(b1-4)GlcNAc6S
# Method in brief: as §1
# Neu5Ac(a2-6)GalNAc = biological target: Neu5Ac(a2-6)GalNAc
# Method in brief: as §1
# [39] = biological target: Neu5Ac(a2-6)GalNAc(b1-4)GlcNAc
# Method in brief: as §1
# [40] = biological target: Neu5Ac(a2-6)GalNAc(b1-4)GlcNAc6S
# Method in brief: as §1
# [41] = biological target: Neu5Ac(a2-6)GlcNAc(b1-4)GlcNAc
# Method in brief: as §1
binder,measurement,setting,value
"AntigenI/IIC123 (Streptococcus mutans), C9E3B4 (protein) MASMTGGQQMGRIHFHYFKLAVQPQVNKEIRNNNDINIDRTLVAKQSVVKFQLKTADLPAGRDETTSFVLVDPLPSGYQFNPEATKAASPGFDVTYDNATNTVTFKATAATLATFNADLTKSVATIYPTVVGQVLNDGATYKNNFTLTVNDAYGIKSNVVRVTTPGKPNDPDNPNNNYIKPTKVNKNENGVVIDGKTVLAGSTNYYELTWDLDQYKNDRSSADTIQKGFYYVDDYPEEALELRQDLVKITDANGNEVTGVSVDNYTNLEAAPQEIRDVLSKAGIRPKGAFQIFRADNPREFYDTYVKTGIDLKIVSPMVVKKQMGQTGGSYENQAYQIDFGNGYASNIIINNVPKINPKKDVTLTLDPADTNNVDGQTIPLNTVFNYRLIGGIIPADHSEELFEYNFYDDYDQTGDHYTGQYKVFAKVDITFKDGSIIKSGAELTQYTTAEVDTAKGAITIKFKEAFLRSVSIDSAFQAESYIQMKRIAVGTFENTYINTVNGVTYSSLEHHHHHH",glycan array binding signal (z-score),Neu5Ac(a2-3)GalNAc,-0.706
same,glycan array binding signal (z-score),[1],0.443
same,glycan array binding signal (z-score),[2],-0.218
same,glycan array binding signal (z-score),[3],0.527
same,glycan array binding signal (z-score),[4],1.72
same,glycan array binding signal (z-score),[5],-0.734
same,glycan array binding signal (z-score),Neu5Ac(a2-6)Gal,4.55
same,glycan array binding signal (z-score),[6],-0.008
same,glycan array binding signal (z-score),Neu5Ac(a2-6)Gal(b1-4)Glc,-0.07
same,glycan array binding signal (z-score),[7],-0.728
same,glycan array binding signal (z-score),[8],-1.06
same,glycan array binding signal (z-score),[9],-0.226
same,glycan array binding signal (z-score),[10],-0.482
same,glycan array binding signal (z-score),[11],1.46
same,glycan array binding signal (z-score),[12],-0.868
same,glycan array binding signal (z-score),[13],-0.382
same,glycan array binding signal (z-score),[14],2.12
same,glycan array binding signal (z-score),[15],-0.103
same,glycan array binding signal (z-score),[16],-0.315
same,glycan array binding signal (z-score),[17],-0.796
same,glycan array binding signal (z-score),[18],-0.477
same,glycan array binding signal (z-score),[19],-0.067
same,glycan array binding signal (z-score),[20],-0.59
same,glycan array binding signal (z-score),[21],1.59
same,glycan array binding signal (z-score),[22],-0.572
same,glycan array binding signal (z-score),[23],-0.081
same,glycan array binding signal (z-score),[24],-0.001
same,glycan array binding signal (z-score),[25],0.512
same,glycan array binding signal (z-score),[26],0.717
same,glycan array binding signal (z-score),[27],-1.11
same,glycan array binding signal (z-score),[28],0.175
same,glycan array binding signal (z-score),[29],-0.497
same,glycan array binding signal (z-score),[30],-0.123
same,glycan array binding signal (z-score),[31],1.06
same,glycan array binding signal (z-score),[32],-0.288
same,glycan array binding signal (z-score),[33],0.363
same,glycan array binding signal (z-score),[34],-0.343
same,glycan array binding signal (z-score),[35],-0.28
same,glycan array binding signal (z-score),[36],-0.387
same,glycan array binding signal (z-score),[37],0.025
same,glycan array binding signal (z-score),[38],1.19
same,glycan array binding signal (z-score),Neu5Ac(a2-6)GalNAc,-1.23
same,glycan array binding signal (z-score),[39],-0.275
same,glycan array binding signal (z-score),[40],0.337
same,glycan array binding signal (z-score),[41],-0.838

# Three entries picked at random from the list so far, as already listed:
binder,measurement,setting,value
"AntigenI/IIC123 (Streptococcus mutans), C9E3B4 (protein) MASMTGGQQMGRIHFHYFKLAVQPQVNKEIRNNNDINIDRTLVAKQSVVKFQLKTADLPAGRDETTSFVLVDPLPSGYQFNPEATKAASPGFDVTYDNATNTVTFKATAATLATFNADLTKSVATIYPTVVGQVLNDGATYKNNFTLTVNDAYGIKSNVVRVTTPGKPNDPDNPNNNYIKPTKVNKNENGVVIDGKTVLAGSTNYYELTWDLDQYKNDRSSADTIQKGFYYVDDYPEEALELRQDLVKITDANGNEVTGVSVDNYTNLEAAPQEIRDVLSKAGIRPKGAFQIFRADNPREFYDTYVKTGIDLKIVSPMVVKKQMGQTGGSYENQAYQIDFGNGYASNIIINNVPKINPKKDVTLTLDPADTNNVDGQTIPLNTVFNYRLIGGIIPADHSEELFEYNFYDDYDQTGDHYTGQYKVFAKVDITFKDGSIIKSGAELTQYTTAEVDTAKGAITIKFKEAFLRSVSIDSAFQAESYIQMKRIAVGTFENTYINTVNGVTYSSLEHHHHHH",glycan array binding signal (z-score),[41],-0.838
same,glycan array binding signal (z-score),Neu5Ac(a2-6)Gal,4.55
same,glycan array binding signal (z-score),[1],0.443
